Publication PMC8174033

Target: T1, fasciculation and elongation protein zeta 1 (FEZ1), full-length, EmGFP-tagged (UniProt Q99689)
T1 sequence: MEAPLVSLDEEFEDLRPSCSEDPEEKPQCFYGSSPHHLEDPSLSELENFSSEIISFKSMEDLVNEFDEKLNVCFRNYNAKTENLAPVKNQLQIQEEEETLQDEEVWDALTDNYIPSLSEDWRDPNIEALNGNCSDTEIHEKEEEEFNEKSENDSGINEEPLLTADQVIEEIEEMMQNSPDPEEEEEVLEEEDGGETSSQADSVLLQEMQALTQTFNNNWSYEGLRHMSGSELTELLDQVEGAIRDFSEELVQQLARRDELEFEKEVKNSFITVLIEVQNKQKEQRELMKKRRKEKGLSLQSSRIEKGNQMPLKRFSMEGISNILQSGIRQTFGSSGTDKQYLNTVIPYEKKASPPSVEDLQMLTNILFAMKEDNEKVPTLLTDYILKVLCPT
Test: co-IP; HEK293 cells co-expressing the two tagged proteins, 24 h after transfection; lysis and washes in 50 mM HEPES, 150 mM NaCl, 1 mM EDTA, 1% Triton X-100, pH 7.2; GFP-Trap agarose beads 1-3 h at 4°C; immunoblot

binding: binds
Substance: Munc18, FLAG-tagged

These are yes or no findings as the source states them, for the method shown. In cells and extracts the contact can be indirect. Binding can be weak; no strength is given. Tags and fused reporters may be left off the sequences shown.
